Measured values taken from patent US20230174596A1 (published 2023).
Residue numbers refer to the chain shown, from its start. These are yes or no findings as the source states them, for the method shown. Some entries that bind do so weakly or less than the wild type.

T1: human VEGF-A (human, UniProt P15692-4 34-135, limits assumed)
T1 sequence (looked up): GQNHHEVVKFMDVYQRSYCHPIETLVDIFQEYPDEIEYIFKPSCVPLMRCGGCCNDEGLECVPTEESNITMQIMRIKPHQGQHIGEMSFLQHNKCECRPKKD

T2: hVEGF-A (8-109) (human, UniProt P15692 214-315)
T2 construct: residue numbers count on mature VEGF-A; dimer
T2 sequence (looked up): T1 sequence (looked up)

T3: rat VEGF-A (rat, UniProt P16612-2 27-190, limits assumed)
T3 sequence (looked up): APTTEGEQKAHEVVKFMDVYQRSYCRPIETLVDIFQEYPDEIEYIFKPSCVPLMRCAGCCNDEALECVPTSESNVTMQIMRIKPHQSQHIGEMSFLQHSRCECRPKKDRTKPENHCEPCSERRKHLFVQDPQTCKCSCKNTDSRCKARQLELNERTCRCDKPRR

B1: VEGF_CKP9 (designed binder)
chain: GCQLMQPFWGCKQDSDCLAGCVCHWYQSCG
B2: VEGF_CKP6 (designed binder)
chain: GCPTTRFKQYCKQDSDCLAGCVCGPNGFCG
B3: VEGF_CKP7 (designed binder)
chain: GCQDPTFNWALYCKQDSDCLAGCVCQMYQSCG
B4: VEGF_CKP10 (designed binder)
chain: GCRDLDVKWDCKQDSDCLAGCFCQYYSSCG
B5: VEGF_CKP11 (designed binder)
chain: GCRTPWEPHDITCKQDSDCLAGCVCGPNGFCG
B6: VEGF_CKP12 (designed binder)
chain: B5 chain with R3T, E7P, D10E, T12M
B7: VEGF_CKP13 (designed binder)
chain: B5 chain with R3V, E7K, D10W, T12N
B8: 9.63.44-14 (SEQ ID NO: 514) (designed binder)
chain: GCDVMQPYWGCEMDFDCLAGCVCHWYNSCGVN
B9: 9.63.44-14 (SEQ ID NO: 532) (designed binder)
chain: B8 chain with V22I, V31W, N32K
B10: VEGF_CKP9.54.90 (designed binder)
chain: GCNIMLPFWGCGRDFECLAGCVCQYYQSCG
B11: VEGF_CKP9.54 (designed binder)
chain: GCNIMLPFWGCKQDSDCLAGCVCQYYQSCG
notes: also called EM54
B12: VEGF_CKP9.63 (designed binder)
chain: GCDVMQPYWGCKQDSDCLAGCVCHWYNSCG
notes: also called EM63
B13: VEGF_CKP9.63.12 (designed binder)
chain: B12 chain with K12G, Q13P, S15I
notes: also called L2.9.63.12

Target: T1, human VEGF-A
Assay: phage competition ELISA, soluble peptide

| Binder | binding |
| --- | --- |
| B1 | binds |
| B2 | binds |
| B3 | binds |
| B4 | binds |
| B5 | binds |
| B6 | binds |
| B7 | binds |

Target: T2, hVEGF-A (8-109)
Assay: spot phage ELISA

| Binder | binding |
| --- | --- |
| B8 | binds |
| B9 | binds |

Target: T3, rat VEGF-A
Assay: SPR

| Binder | binding |
| --- | --- |
| B10 | binds |
| B11 | binds |
| B12 | binds |
| B13 | binds |

Target: T1, human VEGF-A
Assay: SPR

| Binder | binding |
| --- | --- |
| B10 | binds |
| B11 | binds |
| B12 | binds |
| B13 | binds |

Target: T2, hVEGF-A (8-109)
Assay: phage competition ELISA

| Binder | binding |
| --- | --- |
| B9 | binds |

Target: T1, human VEGF-A
Assay: co-crystal structure

| Binder | binding |
| --- | --- |
| B10 | binds |
| B11 | binds |
| B12 | binds |
